# Some of the results follow. Shown are side measurements of this screen, not its main read-out; they come without a call. Compounds called inactive in the main read-out are mostly missing here. The note in brackets gives the kind of curve behind each potency; many fits are weak.
# Assay: qHTS Assay for Lipid Storage Modulators in Drosophila S3 Cells;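 as to cell number change: cells counted by Cell Tracker Red CMTPX staining in the red channel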
# Settings: BODIPY lipid droplet fluorescence, 18-24 h; for cell number change: measured here: cell count max response, cells fed with added oleic acid
# In short: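 Drosophila S3 cells got compounds at several concentrations plus oleic acid (400 uM solution). Laser-scanning cytometry with 488 nm excitation read lipid droplets at 500-530 nm and cells at 575-640 nm. Percent activity was relative to 20 uM Triacsin C.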
# [1] = measured here: cell number channel AC50, cells fed with added oleic acid
# [2] = measured here: lipid fluorescence (Fed channel) AC50, cells fed with added oleic acid
Structure (SMILES),cell number change [%],AC50 [1],AC50 [2]
COc1ccc(CCNC(=O)c2coc3ccccc3c2=O)cc1OC,-12.5,"0.00461 µM [falling, full curve, poor fit]","0.58 µM [falling, single point]"
CC(C)(C)NC(=O)CSc1nc(-c2ccc(F)cc2)cs1,17.5,–,"29.1 µM [rising, single point]"
O=C1c2ccc(-c3ccc4c(c3)C(=O)N(CCCO)C4=O)cc2C(=O)N1CCCO,-58,"5.17 µM [falling, full curve, poor fit]",–
Cc1ccc2c(c1)sc(=NC(=O)c1cccs1)n2C,57.1,"0.13 µM [rising, full curve, poor fit]","0.0291 µM [rising, full curve]"
CCCCn1c(C)cc(/C=C(\C#N)C(=O)O)c1C,41.8,"8.2 µM [rising, partial curve]","0.58 µM [falling, full curve, poor fit]"
O=C(COc1ccc(S(=O)(=O)N2CCCCC2)cc1)N1CCOCC1,-17.8,–,–
O=C(CN1C(=O)c2cccc3cccc1c23)NC1CCCCC1,11.5,–,"0.0731 µM [falling, partial curve, poor fit]"
CC(C)(C)c1nc(NC(=O)Nc2ccccc2)sc1Br,-62.6,"11.2 µM [falling, single point]",–
Cc1ccc(-n2c(C)nn(CCOc3ccccc3)c2=O)cc1,-46.7,–,–
CC1CCN(C(=O)CCNC(=O)Cn2cnc3sc4c(c3c2=O)CCCC4)CC1,55.7,"3.66 µM [falling, single point]",–
CCOC(=O)C1CCN(C(=O)CCCOc2ccccc2)CC1,11,–,"29.1 µM [falling, partial curve]"
CCCCCCNC(=O)CCc1nc2cccnc2n1Cc1ccc(OC)cc1,20.2,–,"29.1 µM [falling, single point]"
OC(CN1CCOCC1)(c1ccccc1)c1ccccn1 (configuration not stated),–,"0.0058 µM [rising, full curve, poor fit]",–
O=C(NCC(c1ccco1)N1CCN(c2ccccc2F)CC1)c1cccs1 (configuration not stated),49.2,"29.1 µM [rising, single point]","5.17 µM [rising, partial curve]"
O=C(CN1C(=O)C2(OCCCO2)c2ccccc21)NCCc1ccccc1,-39.5,"0.00366 µM [falling, full curve, poor fit]","13 µM [falling, partial curve]"
CCc1nnc(NC(=O)CSc2nc3c(c(=O)n2CC)SC(C)C3)s1 (configuration not stated),–,–,"0.731 µM [rising, single point]"
O=[N+]([O-])c1cc(/C=N/N2CCCCC2)ccc1Cl,–,"2.59 µM [rising, single point]","2.31 µM [rising, single point]"
COc1ccc(/C=N/N=C2\SCC(=O)N2c2c(C)n(C)n(-c3ccccc3)c2=O)cc1OC,12.4,–,"3.26 µM [falling, single point]"
Cn1c(C(=O)O)c(S(=O)(=O)c2ccc(Cl)cc2)c2ccccc21,22.5,"0.0651 µM [rising, full curve, poor fit]","0.082 µM [rising, full curve, poor fit]"
CCOc1ccccc1NC1=NCC(=O)N1Cc1ccc(F)cc1,-16.2,–,"29.1 µM [rising, single point]"

Structure (SMILES),cell number change [%],AC50 [1],AC50 [2]
CCn1c(COc2ccc(Cl)cc2)nnc1SC1CCc2ccccc2C1=O (configuration not stated),21.8,–,"0.0326 µM [rising, full curve, poor fit]"
O=C(c1ccco1)N1CCN(c2ncnc3c2[nH]c2ccc(Br)cc23)CC1,91.5,"0.411 µM [rising, full curve]","0.231 µM [rising, partial curve, poor fit]"
CCOC(=O)C1CCCN(C(=O)c2cc(Cl)ccc2NC(=O)C2=C(C)OCCS2)C1 (configuration not stated),19.1,–,"6.51 µM [falling, single point]"
O=C(N/N=C/C=C/c1ccc(Br)cc1)C(O)c1ccccc1 (configuration not stated),66.4,"29.1 µM [rising, single point]",–
COc1cc(C(=O)OCC(=O)N2c3ccccc3NC(=O)C2(C)C)ccc1OCC(C)C,1.41,–,"8.2 µM [falling, partial curve]"
O=C(NCCCN1CCOCC1)c1ccc2c(=O)n(Cc3ccc(Cl)cc3)c(=S)[nH]c2c1,-2.99,–,–
Cc1cc(NCC2CCCO2)n2c(nc3ccccc32)c1C#N (configuration not stated),-18.3,–,"2.31 µM [falling, single point]"
Cc1ccc(N2C(=O)N(CC(=O)NCc3ccccc3Cl)C(=O)C2C)cc1 (configuration not stated),-10.7,–,–
CCn1nc(C)cc1C(=O)Sc1ccc(Cl)cc1Cl,-12.6,"0.82 µM [rising, single point]","0.103 µM [falling, full curve, poor fit]"
CCOC(=O)C1CCN(C(=O)C2(NC(=O)Nc3ccccc3C)CCCCC2)CC1,7.21,–,"4.11 µM [falling, full curve]"
Cn1c(=O)[nH]c(=O)c2c1nc(SCC(=O)O)n2Cc1ccccc1,4.2,–,–
CCOC(=O)C(NC(C)=O)C(OC(C)=O)c1cccc(N(CCO)CCO)c1 (configuration not stated),4.89,–,–
O=C1CCN(CCc2ccccc2)CCN1[C@H](CSc1ccccc1)Cc1ccccc1,7.19,–,"6.51 µM [rising, partial curve]"
COc1ccc(C(=O)N(CCc2ccccc2)Cc2cccs2)c(OC)c1,–,–,"14.6 µM [falling, partial curve]"
O=C(NC1CCCCC1)C(c1ccccc1)N(C(=O)c1csnn1)C1CC1 (configuration not stated),0.806,–,"4.11 µM [falling, full curve]"
CCCCC[C@H]1CN(Cc2ccc(OC)cc2)C(=O)[C@@H]1CC(=O)NCc1ccccc1,-14.7,–,"29.1 µM [falling, single point]"
COc1ccc(OCc2cc(C(=O)NC3CCOC(C)(C)C3)no2)c2ccccc12 (configuration not stated),–,–,"23.1 µM [falling, single point]"
CC(=O)c1c(C)[nH]c(C(=O)Nc2nc(-c3ccc(-c4ccccc4)cc3)cs2)c1C,-48.2,"29.1 µM [falling, single point]","2.06 µM [rising, partial curve]"
CCn1c(=O)c2cc(C(=O)N3CCOCC3)sc2c2ccccc21,5.92,"2.06 µM [rising, partial curve]","1.03 µM [rising, partial curve]"
CC(=O)Nc1ccc(NC(=O)COc2ccc(-c3ccc(C#N)cc3)cc2)cc1,3.11,–,"6.51 µM [falling, single point]"

# 5 entries from above, set out differently:
Structure (SMILES)	cell number change [%]	AC50 [1]	AC50 [2]
O=C(c1ccco1)N1CCN(c2ncnc3c2[nH]c2ccc(Br)cc23)CC1	91.5	0.411 µM [rising, full curve]	0.231 µM [rising, partial curve, poor fit]
CCn1nc(C)cc1C(=O)Sc1ccc(Cl)cc1Cl	-12.6	0.82 µM [rising, single point]	0.103 µM [falling, full curve, poor fit]
Cn1c(=O)[nH]c(=O)c2c1nc(SCC(=O)O)n2Cc1ccccc1	4.2	–	–
O=C1CCN(CCc2ccccc2)CCN1[C@H](CSc1ccccc1)Cc1ccccc1	7.19	–	6.51 µM [rising, partial curve]
CCCCC[C@H]1CN(Cc2ccc(OC)cc2)C(=O)[C@@H]1CC(=O)NCc1ccccc1	-14.7	–	29.1 µM [falling, single point]

# (continued)

Structure (SMILES),cell number change [%],AC50 [1],AC50 [2]
CCNC(=S)Nc1cc(OCC)c(NC(=O)c2ccco2)cc1OCC,17.1,–,"0.58 µM [rising, full curve, poor fit]"
CN(C1CC(C)(C)NC(C)(C)C1)S(=O)(=O)CC12CCC(CC1=O)C2(C)C (configuration not stated),-11.8,–,"0.651 µM [falling, full curve, poor fit]"
O=S(=O)(c1ccc2[nH]c3c(c2c1)CCCC3)N1CCCCC1,-20.3,–,–
c1ccc(-c2nccc(-c3ccc(-n4cnc5ccccc54)cc3)n2)cc1,-65.2,"29.1 µM [falling, single point]","20.6 µM [falling, single point]"
O=S(=O)(c1ccc(N2CCC(c3ccc(Cl)cc3)=N2)cc1)N(CCO)CCO,-74.5,"29.1 µM [falling, single point]","29.1 µM [falling, partial curve]"
CS(=O)(=O)N(CC(=O)Nc1ccccc1)c1cccc(Cl)c1Cl,-24.6,–,"16.4 µM [falling, single point]"
COc1ccc(/C=N/n2cnnc2)cc1Cn1nc(C)c([N+](=O)[O-])c1C,15.6,"0.731 µM [falling, full curve]","0.731 µM [falling, full curve]"
COc1cccc(C=Nc2ccccc2C(=O)Nc2ccccc2)c1O,2.43,–,–
CC1CCN(c2ccc([N+](=O)[O-])c(SCCO)c2)CC1,17.2,–,"0.58 µM [rising, single point]"
CC(C)CN1C(=O)/C(=C/c2cccs2)NC1=S,-42.2,"11.6 µM [falling, partial curve]","11.6 µM [falling, partial curve]"
Fc1ccc(-c2n[nH]c(=S)n2-c2ccc3c(c2)OCCO3)cc1,4.41,–,"7.31 µM [falling, single point]"
COc1ccc(NC(=O)C2CCN(C(=O)Cc3ccccc3)CC2)cc1OC,–,–,"3.26 µM [rising, single point]"
COC(=O)CSCC(=O)Nc1cc2c(cc1C(C)=O)OCO2,-16.4,–,–
COCCOC(=O)/C=C1/NC(=O)CS1,-69.9,"25.9 µM [falling, partial curve]","25.9 µM [falling, partial curve]"
COc1ccc(C2/C=C\CN(C(=O)C3CCCC3)[C@H](Cc3ccccc3)C(=O)N2Cc2ccc(F)cc2)cc1 (some centres not stated),-21.4,–,"29.1 µM [falling, single point]"
CC(C)CN(C(=O)CN1CCc2ccccc21)c1c(N)n(CC(C)C)c(=O)[nH]c1=O,61.5,"29.1 µM [rising, single point]","18.4 µM [rising, single point]"
Cc1cccc(OCC(=O)NC2CCCC2)c1,7.92,–,–
CN(CC(=O)Nc1cccc(F)c1)C(=O)c1cc(S(=O)(=O)N2CCN(c3ccccc3)CC2)ccc1Cl,6.95,–,"9.2 µM [falling, partial curve]"
